# Experimental data published in the supplement of paper PMC12067093, “Discovery and optimisation of a covalent ligand for TRIM25 and its application to targeted protein ubiquitination” (Chemical Science, 2025).
# The chains behind the UniProt entries cited, without tags or fusion partners. Where a name states a change or a piece, a line headed by the entry shows the natural chain unless it says otherwise.
# UniProt O43592: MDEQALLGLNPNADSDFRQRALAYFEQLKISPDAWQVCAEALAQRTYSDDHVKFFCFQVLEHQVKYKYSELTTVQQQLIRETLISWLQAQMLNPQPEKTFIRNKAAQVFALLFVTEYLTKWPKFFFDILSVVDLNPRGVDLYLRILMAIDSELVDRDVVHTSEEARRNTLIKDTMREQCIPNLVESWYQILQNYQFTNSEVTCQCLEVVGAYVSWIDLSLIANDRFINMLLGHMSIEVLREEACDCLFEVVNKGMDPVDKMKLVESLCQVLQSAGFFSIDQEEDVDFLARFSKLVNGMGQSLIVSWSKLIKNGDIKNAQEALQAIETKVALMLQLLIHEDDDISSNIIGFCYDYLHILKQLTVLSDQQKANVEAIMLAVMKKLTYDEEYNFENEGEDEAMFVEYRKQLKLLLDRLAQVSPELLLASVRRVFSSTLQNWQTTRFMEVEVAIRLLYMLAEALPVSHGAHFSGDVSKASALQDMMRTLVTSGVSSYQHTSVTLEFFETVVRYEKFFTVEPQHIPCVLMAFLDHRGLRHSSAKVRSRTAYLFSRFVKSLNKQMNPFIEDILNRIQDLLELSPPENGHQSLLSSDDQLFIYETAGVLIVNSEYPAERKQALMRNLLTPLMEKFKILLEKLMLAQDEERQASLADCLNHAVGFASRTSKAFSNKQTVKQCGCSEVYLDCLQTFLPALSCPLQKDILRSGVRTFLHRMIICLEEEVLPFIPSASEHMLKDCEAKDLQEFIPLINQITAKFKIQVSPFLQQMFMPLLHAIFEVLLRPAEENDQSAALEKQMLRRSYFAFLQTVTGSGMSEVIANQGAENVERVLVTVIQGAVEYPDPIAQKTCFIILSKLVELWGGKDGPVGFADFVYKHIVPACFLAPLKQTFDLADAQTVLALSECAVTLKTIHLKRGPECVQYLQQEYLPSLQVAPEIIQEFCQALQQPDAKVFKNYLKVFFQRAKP
# UniProt Q9UGR2: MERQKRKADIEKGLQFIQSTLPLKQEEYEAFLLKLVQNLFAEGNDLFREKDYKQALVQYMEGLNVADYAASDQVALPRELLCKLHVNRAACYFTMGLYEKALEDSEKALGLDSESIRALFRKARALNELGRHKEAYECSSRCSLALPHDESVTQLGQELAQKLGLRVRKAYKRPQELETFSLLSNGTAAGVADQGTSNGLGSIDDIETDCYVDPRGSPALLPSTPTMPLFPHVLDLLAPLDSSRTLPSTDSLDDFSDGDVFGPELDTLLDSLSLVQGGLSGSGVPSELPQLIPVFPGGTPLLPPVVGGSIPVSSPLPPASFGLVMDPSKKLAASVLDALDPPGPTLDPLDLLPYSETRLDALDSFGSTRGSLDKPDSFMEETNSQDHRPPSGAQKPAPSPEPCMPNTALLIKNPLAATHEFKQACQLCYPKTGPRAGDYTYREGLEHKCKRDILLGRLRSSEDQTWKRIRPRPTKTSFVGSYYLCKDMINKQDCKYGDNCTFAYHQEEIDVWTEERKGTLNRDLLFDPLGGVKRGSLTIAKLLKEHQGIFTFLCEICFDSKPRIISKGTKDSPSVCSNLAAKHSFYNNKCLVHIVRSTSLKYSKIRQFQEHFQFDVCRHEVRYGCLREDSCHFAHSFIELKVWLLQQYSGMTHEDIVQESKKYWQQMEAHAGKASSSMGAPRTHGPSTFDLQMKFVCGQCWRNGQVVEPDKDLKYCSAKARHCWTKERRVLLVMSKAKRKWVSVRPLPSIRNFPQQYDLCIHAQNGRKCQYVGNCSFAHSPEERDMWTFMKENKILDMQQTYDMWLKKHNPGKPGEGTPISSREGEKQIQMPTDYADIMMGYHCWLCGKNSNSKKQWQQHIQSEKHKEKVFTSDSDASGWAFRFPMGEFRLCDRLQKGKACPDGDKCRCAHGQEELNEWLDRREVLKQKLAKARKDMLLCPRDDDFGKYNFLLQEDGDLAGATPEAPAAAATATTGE
# The list shows a part of the results.
# Tests used:
# [1] = target: XPOT_O43592_877_HIVPACFLAPLK (UniProt O43592); test: probe-labelled cysteine peptide fold change vs DMSO (competition) (log2 fold change); higher = less target engagement (more negative = stronger competition); conditions: THP-1, incubation time: 4 h
# [2] = target: ZC3H7B_Q9UGR2_590_CLVHIVR (UniProt Q9UGR2); test: as above; conditions: THP-1, incubation time: 4 h
# 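Also: competitive profiling in live THP-1 cells: cysteine peptides tagged with an iodoacetamide desthiobiotin (IA-DTB) probe, intensity after compound treatment relative to DMSO-treated cells.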
smiles,measurement,setting,value
Cc1cc(C(=O)N2CCCN(C(=O)CCl)CC2)ccc1-c1ccccc1 [compound 10],probe-labelled cysteine peptide fold change,[1]; 10 µM,-0.00347
same,probe-labelled cysteine peptide fold change,[1]; 50 µM,0.308
same,probe-labelled cysteine peptide fold change,[2]; 10 µM,-0.0078
same,probe-labelled cysteine peptide fold change,[2]; 50 µM,-0.0229
